Test results from publication PMC5025166.

Chains of the proteins cited; added tags and fusions are not shown.
UniProt Q925T6: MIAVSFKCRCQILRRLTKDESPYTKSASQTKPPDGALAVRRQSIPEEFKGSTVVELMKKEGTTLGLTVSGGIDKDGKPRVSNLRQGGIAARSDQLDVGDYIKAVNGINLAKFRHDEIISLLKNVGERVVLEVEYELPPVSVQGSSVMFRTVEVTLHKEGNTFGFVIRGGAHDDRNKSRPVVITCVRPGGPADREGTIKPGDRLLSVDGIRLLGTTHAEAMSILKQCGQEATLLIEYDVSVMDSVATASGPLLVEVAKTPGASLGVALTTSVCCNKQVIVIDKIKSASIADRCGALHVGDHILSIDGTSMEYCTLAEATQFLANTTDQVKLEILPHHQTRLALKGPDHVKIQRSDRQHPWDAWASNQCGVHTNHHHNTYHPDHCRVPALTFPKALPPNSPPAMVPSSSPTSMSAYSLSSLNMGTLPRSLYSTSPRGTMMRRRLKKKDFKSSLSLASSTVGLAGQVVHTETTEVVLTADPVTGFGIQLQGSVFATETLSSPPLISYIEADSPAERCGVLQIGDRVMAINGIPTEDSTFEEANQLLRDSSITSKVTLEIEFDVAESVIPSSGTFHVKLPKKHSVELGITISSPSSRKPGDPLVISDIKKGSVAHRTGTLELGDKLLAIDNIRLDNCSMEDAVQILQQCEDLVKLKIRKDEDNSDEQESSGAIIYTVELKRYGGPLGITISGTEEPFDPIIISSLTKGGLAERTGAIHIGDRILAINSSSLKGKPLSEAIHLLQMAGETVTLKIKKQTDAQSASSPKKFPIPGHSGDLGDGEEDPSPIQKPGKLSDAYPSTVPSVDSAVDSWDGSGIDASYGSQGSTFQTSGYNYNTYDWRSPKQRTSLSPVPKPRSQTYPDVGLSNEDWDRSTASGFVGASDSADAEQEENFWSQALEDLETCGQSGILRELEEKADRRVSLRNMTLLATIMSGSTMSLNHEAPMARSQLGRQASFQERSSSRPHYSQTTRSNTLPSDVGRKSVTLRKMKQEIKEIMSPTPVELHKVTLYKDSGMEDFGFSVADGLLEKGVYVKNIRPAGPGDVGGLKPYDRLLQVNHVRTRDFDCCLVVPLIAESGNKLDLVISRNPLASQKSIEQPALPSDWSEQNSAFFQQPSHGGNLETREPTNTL
UniProt P63101: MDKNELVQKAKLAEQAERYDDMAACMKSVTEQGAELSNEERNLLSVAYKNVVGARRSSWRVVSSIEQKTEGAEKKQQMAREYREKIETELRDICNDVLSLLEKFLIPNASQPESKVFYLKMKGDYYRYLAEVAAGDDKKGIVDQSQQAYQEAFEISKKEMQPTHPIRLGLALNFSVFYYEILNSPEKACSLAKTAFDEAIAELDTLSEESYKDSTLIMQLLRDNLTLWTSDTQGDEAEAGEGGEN
UniProt P17742: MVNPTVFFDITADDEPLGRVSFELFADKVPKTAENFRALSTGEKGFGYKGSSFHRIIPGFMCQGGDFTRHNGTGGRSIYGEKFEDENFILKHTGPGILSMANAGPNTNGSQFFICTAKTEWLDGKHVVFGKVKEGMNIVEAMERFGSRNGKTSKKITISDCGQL

B1: GPIbβ (receptor, UniProt P56400 27-206)
chain: PAPCSCAGTLVDCGRRGLTWASLPAAFPPDTTELVLTGNNLTALPPGLLDALPALRAAHLGANPWRCDCRLLPLRAWLAGRPERAPYRDLRCVAPPALRGRLLPYVAEDELRAACAPGLLCWGALVAQLALLVLGLLHALLLALLLGRLRRLRARARARSIQEFSLTAPLVAESARGGAS
B2: Pleckstrin (protein, UniProt Q9JHK5 1-350)
chain: MEPKRIREGYLVKKGSVFNTWKPMWVVLLEDGIEFYKKKSDNSPKGMIPLKGSTLTSPCQDFGKRMFVLKITTTKQQDHFFQAAFLEERDAWVRDIKKAIKCIEGGQKFARKSTRRSIRLPETIDLGALYLSMKDPEKGIKELNLEKDKKVFNHCLTGSGVIDWLVSNKLVRNRQEGLMISASLLSEGYLQPAGDLSKNAADGIAENPFLDSPDAFYYFPDSGFFCEENSSDDDVILREEFRGVIIKQGCLLKQGHRRKNWKVRKFILREDPAYLHYYDPAGGEDPLGAVHLRGCVVTSVESSHDVKKSDEENLFEIITADEVHYYLQAATSKERTEWIKAIQVASRTGK
B3: Zyxin (protein, UniProt Q62523 1-564)
chain: MAAPRPPPAISVSVSAPAFYAPQKKFAPVVAPKPKVNPFRPGDSEPPVAAGAQRAQMGRVGEIPPPPPEDFPLPPPPLIGEGDDSEGALGGAFPPPPPPMIEEPFPPAPLEEDIFPSPPPPLEEEGGPEAPTQLPPQPREKVCSIDLEIDSLSSLLDDMTKNDPFKARVSSGYVPPPVATPFVPKPSTKPAPGGTAPLPPWKTPSSSQPPPQPQAKPQVQLHVQPQAKPHVQPQPVSSANTQPRGPLSQAPTPAPKFAPVAPKFTPVVSKFSPGAPSGPGPQPNQKMVPPDAPSSVSTGSPQPPSFTYAQQKEKPLVQEKQHPQPPPAQNQNQVRSPGGPGPLTLKEVEELEQLTQQLMQDMEHPQRQSVAVNESCGKCNQPLARAQPAVRALGQLFHITCFTCHQCQQQLQGQQFYSLEGAPYCEGCYTDTLEKCNTCGQPITDRMLRATGKAYHPQCFTCVVCACPLEGTSFIVDQANQPHCVPDYHKQYAPRCSVCSEPIMPEPGRDETVRVVALDKNFHMKCYKCEDCGKPLSIEADDNGCFPLDGHVLCRKCHSARAQT

These molecules were tested against Glutamate receptor interacting protein 1 (mouse (endogenous in mouse platelets)) (UniProt Q925T6) (assay: affinity purification with mass spectrometry; GRIP1 immunoprecipitated (sc-29834) from WT mouse platelets, GRIP1-/- platelets as negative control; band excision, trypsin digestion, LTQ LC/MS).

binding, binds:
14-3-3ζ (from UniProt P63101 1-245)
Cyclophilin A (from UniProt P17742 1-164)
B1
B2
B3

Results are given in words; binding and its absence hold for the method and conditions named. Binding seen in cells or lysates may run through a third protein. A yes stands for co-enrichment or nearness to the bait. Other partners may have been found.
